Assay results taken from patent publication US20160101154A1.
Results are given in words; binding and its absence hold for the method and conditions named. Some binding calls cover weakened binding; strength is not graded here.

The chains behind the UniProt entries cited, without tags or fusion partners. Where a name states a change or a piece, a line headed by the entry shows the natural chain unless it says otherwise.
UniProt P06756: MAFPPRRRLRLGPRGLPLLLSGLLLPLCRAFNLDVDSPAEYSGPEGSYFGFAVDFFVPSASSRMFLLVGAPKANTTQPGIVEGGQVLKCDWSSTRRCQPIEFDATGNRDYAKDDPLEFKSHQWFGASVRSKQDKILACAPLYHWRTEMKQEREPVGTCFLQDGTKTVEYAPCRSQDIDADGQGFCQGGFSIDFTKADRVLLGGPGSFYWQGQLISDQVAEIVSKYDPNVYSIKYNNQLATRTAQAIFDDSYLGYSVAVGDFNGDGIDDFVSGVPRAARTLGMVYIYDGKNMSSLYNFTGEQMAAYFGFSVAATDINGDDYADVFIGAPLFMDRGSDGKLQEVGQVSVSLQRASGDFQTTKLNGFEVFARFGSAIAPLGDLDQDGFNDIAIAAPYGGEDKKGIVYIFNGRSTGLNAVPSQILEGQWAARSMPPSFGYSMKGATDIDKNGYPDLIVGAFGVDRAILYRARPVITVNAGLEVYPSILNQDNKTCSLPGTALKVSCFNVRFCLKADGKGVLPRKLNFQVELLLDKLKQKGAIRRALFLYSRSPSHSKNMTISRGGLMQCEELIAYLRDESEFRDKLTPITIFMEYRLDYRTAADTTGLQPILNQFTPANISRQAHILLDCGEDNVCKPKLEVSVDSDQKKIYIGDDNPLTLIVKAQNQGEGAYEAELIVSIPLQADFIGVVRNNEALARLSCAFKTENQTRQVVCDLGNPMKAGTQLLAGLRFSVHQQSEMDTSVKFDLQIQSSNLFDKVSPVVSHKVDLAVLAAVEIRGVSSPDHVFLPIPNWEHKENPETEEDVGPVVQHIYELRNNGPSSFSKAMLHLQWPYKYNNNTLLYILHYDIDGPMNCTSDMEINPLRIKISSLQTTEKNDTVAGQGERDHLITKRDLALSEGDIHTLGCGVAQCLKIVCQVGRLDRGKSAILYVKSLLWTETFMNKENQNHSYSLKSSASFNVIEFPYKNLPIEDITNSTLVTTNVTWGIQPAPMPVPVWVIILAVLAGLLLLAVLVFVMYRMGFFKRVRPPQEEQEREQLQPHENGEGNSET
UniProt O15123: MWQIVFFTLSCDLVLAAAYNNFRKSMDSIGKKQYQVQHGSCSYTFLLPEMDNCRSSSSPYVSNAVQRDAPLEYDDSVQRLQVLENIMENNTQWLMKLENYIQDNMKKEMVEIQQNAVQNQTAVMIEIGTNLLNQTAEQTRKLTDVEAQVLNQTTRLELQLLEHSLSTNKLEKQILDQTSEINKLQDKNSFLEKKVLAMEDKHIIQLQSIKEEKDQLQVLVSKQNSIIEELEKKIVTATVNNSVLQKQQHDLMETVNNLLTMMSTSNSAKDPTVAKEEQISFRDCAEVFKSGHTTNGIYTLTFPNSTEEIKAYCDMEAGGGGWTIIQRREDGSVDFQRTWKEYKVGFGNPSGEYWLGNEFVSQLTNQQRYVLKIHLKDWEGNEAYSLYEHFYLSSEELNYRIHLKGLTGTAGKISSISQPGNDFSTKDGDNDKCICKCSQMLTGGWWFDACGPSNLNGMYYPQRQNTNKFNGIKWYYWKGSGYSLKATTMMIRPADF

Biological target: integrin αVβ3 expressed on transfected CHO cells (UniProt P06756)
Experiment: flow cytometry, FLAG-Ang2 on integrin-transfected CHO cells, anti-FLAG-R-phycoerythrin

“Ang2 protein having FLAG sequences tagged at its N-terminal (FLAG-Ang2), wild type (from UniProt O15123 19-496) (ligand)” was tested, and the binding was “binds”.
